Assay results as given in article PMC9663306.
Where two headings read alike, the source gives them in different places. These are yes or no findings as the source states them, for the method shown. In cells and extracts the contact can be indirect. These calls come from enrichment with a bait or labelling near it, and not all partners need be listed. Tags and fused reporters may be left off the sequences shown.

Chains of the proteins cited; added tags and fusions are not shown.
UniProt Q8CJ61: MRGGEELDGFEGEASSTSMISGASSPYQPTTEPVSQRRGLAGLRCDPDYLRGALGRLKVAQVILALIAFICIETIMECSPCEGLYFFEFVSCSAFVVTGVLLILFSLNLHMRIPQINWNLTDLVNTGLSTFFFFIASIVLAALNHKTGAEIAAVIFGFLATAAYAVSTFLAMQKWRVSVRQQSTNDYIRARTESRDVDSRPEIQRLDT

What was measured:
[1] = biological target: T1, Strep-Flag-tagged mouse IL-17A (mouse) (UniProt Q62386); experiment: affinity purification with mass spectrometry; ST2 cells stimulated with SF-IL-17A (500 ng/ml, 15 min), lysed in 1% DDM; tandem purification of SF-IL-17A (anti-FLAG M2 agarose, 3xFlag peptide elution, Strep-Tactin Sepharose); iBAQ quantification, 13 experiments; control: SF-IL-17A added after lysis; only the target purified
T1 sequence: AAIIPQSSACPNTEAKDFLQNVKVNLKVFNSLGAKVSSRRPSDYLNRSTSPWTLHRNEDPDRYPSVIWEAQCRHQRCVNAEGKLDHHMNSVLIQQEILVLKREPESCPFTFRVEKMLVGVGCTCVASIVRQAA

[2] = biological target: T2, SF-IL-17RC (murine IL-17RC with C-terminal 2xStrep-3xFlag tag), in ST2 cells (mouse) (UniProt Q8K4C2); experiment: affinity purification with mass spectrometry; ST2 cells expressing SF-IL-17RC (control SF-GFP), 1% DDM lysate; tandem purification (anti-FLAG M2 agarose, Strep-Tactin Sepharose); iBAQ quantification, three experiments
T2 sequence (chain, N-glycosylated (100 kDa and 150 kDa forms)): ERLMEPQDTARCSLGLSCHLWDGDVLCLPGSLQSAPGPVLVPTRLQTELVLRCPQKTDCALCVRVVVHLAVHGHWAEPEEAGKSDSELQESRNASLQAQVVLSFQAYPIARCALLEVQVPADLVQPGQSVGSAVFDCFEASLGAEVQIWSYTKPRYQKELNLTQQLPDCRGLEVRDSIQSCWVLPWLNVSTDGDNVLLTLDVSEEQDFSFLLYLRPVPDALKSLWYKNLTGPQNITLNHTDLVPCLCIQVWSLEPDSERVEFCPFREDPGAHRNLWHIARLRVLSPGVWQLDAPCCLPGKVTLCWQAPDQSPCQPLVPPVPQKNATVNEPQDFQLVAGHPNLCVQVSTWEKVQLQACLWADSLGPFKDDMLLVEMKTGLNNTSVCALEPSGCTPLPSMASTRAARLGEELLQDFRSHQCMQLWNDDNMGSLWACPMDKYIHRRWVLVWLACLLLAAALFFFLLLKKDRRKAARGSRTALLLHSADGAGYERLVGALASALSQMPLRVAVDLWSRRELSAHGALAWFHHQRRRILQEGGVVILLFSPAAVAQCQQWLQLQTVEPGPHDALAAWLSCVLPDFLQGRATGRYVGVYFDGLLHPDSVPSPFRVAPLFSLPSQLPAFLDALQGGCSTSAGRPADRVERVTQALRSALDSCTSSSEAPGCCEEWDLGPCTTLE

[3] = biological target: T1, Strep-Flag-tagged mouse IL-17A (mouse); experiment: affinity purification with mass spectrometry; ST2 cells stimulated with SF-IL-17A (500 ng/ml, 15 min), lysed in 1% DDM; tandem purification of SF-IL-17A (anti-FLAG M2 agarose, 3xFlag peptide elution, Strep-Tactin Sepharose); iBAQ quantification, 13 experiments; control: SF-IL-17A added after lysis; only the target purified; remark: listed apart in the source

CMTM4 (endogenous, mouse ST2 cells) (from UniProt Q8CJ61 1-208)
binding [1]: binds
binding [2]: binds

B1: IL-17RC (endogenous, mouse ST2 cells) (receptor, UniProt Q8K4C2 22-698)
chain: ERLMEPQDTARCSLGLSCHLWDGDVLCLPGSLQSAPGPVLVPTRLQTELVLRCPQKTDCALCVRVVVHLAVHGHWAEPEEAGKSDSELQESRNASLQAQVVLSFQAYPIARCALLEVQVPADLVQPGQSVGSAVFDCFEASLGAEVQIWSYTKPRYQKELNLTQQLPDCRGLEVRDSIQSCWVLPWLNVSTDGDNVLLTLDVSEEQDFSFLLYLRPVPDALKSLWYKNLTGPQNITLNHTDLVPCLCIQVWSLEPDSERVEFCPFREDPGAHRNLWHIARLRVLSPGVWQLDAPCCLPGKVTLCWQAPDQSPCQPLVPPVPQKNATVNEPQDFQLVAGHPNLCVQVSTWEKVQLQACLWADSLGPFKDDMLLVEMKTGLNNTSVCALEPSGCTPLPSMASTRAARLGEELLQDFRSHQCMQLWNDDNMGSLWACPMDKYIHRRWVLVWLACLLLAAALFFFLLLKKDRRKAARGSRTALLLHSADGAGYERLVGALASALSQMPLRVAVDLWSRRELSAHGALAWFHHQRRRILQEGGVVILLFSPAAVAQCQQWLQLQTVEPGPHDALAAWLSCVLPDFLQGRATGRYVGVYFDGLLHPDSVPSPFRVAPLFSLPSQLPAFLDALQGGCSTSAGRPADRVERVTQALRSALDSCTSSSEAPGCCEEWDLGPCTTLE
modifications: glycosylated (forms of approximately 100 kDa and 150 kDa)
binding [3]: binds
